PubChem BioAssay AID504774 – Drosophila RNAi Screening Center | 2011
Purpose: 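Genes required for cells to withstand methyl methanesulphonate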 (primary screen). Cells: Drosophila Kc167 cells. Reagent: long dsRNA against Drosophila genes, about 0.25 µg dsRNA per well. Timing: about 6 days: 3 days knock-down, then 3 days with or without MMS. Challenge: methyl methanesulphonate 0.004% (w/v) for 3 days after knock-down. Detection: 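Viability in wells given MMS, read as ATP luminescence, normalised by quantiles plate by plate and averaged across replicates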. Direction: mean viability with MMS and viability with MMS: higher = more surviving cells after MMS.
The screen tested about 23,000 reagents; shown is an unselected part of those that have a named target and a result. 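Values are quantile-normalised luminescence on an arbitrary scale; higher means more cells surviving MMS.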 Not all columns of the deposit are shown. Reagent sequences are not shown.

How did the screen score mRpS30 (GeneID 32530) [DRSC20107]?
mean viability with MMS: 3.56e6; viability with MMS, replicate 1: 3.82e6

Which result is listed for Ccp84Ab (GeneID 40824) [DRSC12587]?
mean viability with MMS: 3.52e6; viability with MMS, replicate 1: 4.01e6

For ppl (GeneID 40349) [DRSC11899], what was measured?
mean viability with MMS: 3.48e6; viability with MMS, replicate 1: 3.92e6

What did the screen give for Coprox (GeneID 44701) [DRSC01996]?
mean viability with MMS: 3.63e6; viability with MMS, replicate 1: 4.04e6

Which result is listed for VhaAC39-2 (GeneID 42739) [DRSC15609]?
mean viability with MMS: 3.69e6; viability with MMS, replicate 1: 4.27e6

What is on record for Rrp1 (GeneID 33500) [DRSC00784]?
mean viability with MMS: 3.66e6; viability with MMS, replicate 1: 4.25e6

Which result is listed for fat-spondin (GeneID 36919) [DRSC07617]?
mean viability with MMS: 4.03e6; viability with MMS, replicate 1: 4.67e6

Which result is listed for CG13031 (GeneID 39867) [DRSC09911]?
mean viability with MMS: 3.46e6; viability with MMS, replicate 1: 3.84e6

For CngB (GeneID 37479) [DRSC04297], how do the results read?
mean viability with MMS: 3.32e6; viability with MMS, replicate 1: 3.59e6

Which result is listed for CG2200 (GeneID 32258) [DRSC19840]?
mean viability with MMS: 3.49e6; viability with MMS, replicate 1: 4.02e6

How did the screen score CSN8 (GeneID 49077) [DRSC02257]?
mean viability with MMS: 3.53e6; viability with MMS, replicate 1: 4.07e6

What is on record for glob3 (GeneID 40726) [DRSC12261]?
mean viability with MMS: 3.55e6; viability with MMS, replicate 1: 3.94e6

For TTLL15 (GeneID 41300) [DRSC15543], what was measured?
mean viability with MMS: 3.37e6; viability with MMS, replicate 1: 3.84e6

What is on record for Zasp67 (GeneID 39148) [DRSC10169]?
mean viability with MMS: 3.68e6; viability with MMS, replicate 1: 4.17e6

Already shown: entries from further up.
fat-spondin (GeneID 36919) [DRSC07617] | mean viability with MMS = 4.03e6; viability with MMS, replicate 1 = 4.67e6
CG13031 (GeneID 39867) [DRSC09911] | mean viability with MMS = 3.46e6; viability with MMS, replicate 1 = 3.84e6
